Measurements from paper doi:10.1101/2022.12.25.521308.
Results are given in words; binding and its absence hold for the method and conditions named. In cells and extracts the contact can be indirect. Some binding calls cover weakened binding; strength is not graded here. Tags and fused reporters may be left off the sequences shown.

Amino acid sequences for entries named in this document (tags omitted). Residues count along the entry.
UniProt P28799, residues 18-593: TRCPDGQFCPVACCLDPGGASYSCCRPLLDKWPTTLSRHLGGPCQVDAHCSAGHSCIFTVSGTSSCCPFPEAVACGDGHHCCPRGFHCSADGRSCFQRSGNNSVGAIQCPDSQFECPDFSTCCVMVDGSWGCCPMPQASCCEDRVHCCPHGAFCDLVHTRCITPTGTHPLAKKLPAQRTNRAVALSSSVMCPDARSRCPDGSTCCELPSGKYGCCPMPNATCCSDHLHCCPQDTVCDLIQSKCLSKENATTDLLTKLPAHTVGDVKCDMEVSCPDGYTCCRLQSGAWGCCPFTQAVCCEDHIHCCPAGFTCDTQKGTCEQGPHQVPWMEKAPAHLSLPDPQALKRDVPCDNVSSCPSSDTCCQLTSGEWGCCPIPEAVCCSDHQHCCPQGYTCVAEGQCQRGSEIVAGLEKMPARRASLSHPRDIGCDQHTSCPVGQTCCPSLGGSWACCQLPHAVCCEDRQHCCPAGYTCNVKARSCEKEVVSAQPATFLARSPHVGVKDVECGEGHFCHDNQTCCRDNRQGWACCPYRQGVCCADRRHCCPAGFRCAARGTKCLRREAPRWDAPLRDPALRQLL

Molecular target: FLAG-PGRN (progranulin) (UniProt P28799)
Test: co-IP

B1: β-glucocerebrosidase (GCase), non-tagged human GBA (enzyme, UniProt P04062 40-536)
chain: ARPCIPKSFGYSSVVCVCNATYCDSFDPPTFPALGTFSRYESTRSGRRMELSMGPIQANHTGTGLLLTLQPEQKFQKVKGFGGAMTDAAALNILALSPPAQNLLLKSYFSEEGIGYNIIRVPMASCDFSIRTYTYADTPDDFQLHNFSLPEEDTKLKIPLIHRALQLAQRPVSLLASPWTSPTWLKTNGAVNGKGSLKGQPGDIYHQTWARYFVKFLDAYAEHKLQFWAVTAENEPSAGLLSGYPFQCLGFTPEHQRDFIARDLGPTLANSTHHNVRLLMLDDQRLLLPHWAKVVLTDPEAAKYVHGIAVHWYLDFLAPAKATLGETHRLFPNTMLFASEACVGSKFWEQSVRLGSWDRGMQYSHSIITNLLYHVVGWTDWNLALNPEGGPNWVRNFVDSPIIVDITKDTFYKQPMFYHLGHFSKFIPEGSQRVGLVASQKNDLDAVALMHPDGSAVVVVLNRSSKDVPLTIKDPAVGFLETISPGYSIHTYLWRRQ
Q: B1 was tested. Which binding did it give?
A: Its binding is “binds”.
